In patent US9243051:
Results are given in words; binding and its absence hold for the method and conditions named. Some binding calls cover weakened binding; strength is not graded here.

Experiments:
[1] = target: T1, Biotinylated MOG-35-55 peptide (Biot-…-OH) (murine sequence); test: peptide capture ELISA, time course
T1 chain: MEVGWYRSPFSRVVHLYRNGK

[2] = target: T1, Biotinylated MOG-35-55 peptide …; test: peptide capture ELISA, saturation binding; conditions: remark: other sources report otherwise

binding [1]: binds
binding [2]: binds
B1: RTL302, Human HLA DR2 (DRB1*150101/DRA*0101) β1α1 domains (protein)
chain: MGDTRPRFLWQPKRECHFFNGTERVRFLDRYFYNQEESVRFDSDVGEFRAVTELGRPDAEYWNSQKDILEQARAAVDTYCRHNYGVVESFTVQRRVIKEEHVIIQAEFYLNPDQSGEFMFDFDGDEIFHVDMAKKETVWRLEEFGRFASFEAQGALANIAVDKANLEIMTKRSNYTPITN
modifications: here or on the partner: N-terminal biotin (Biot-); free C-terminus (-OH)
